# Counter-ions that a name gives are not always drawn. ± gives the standard deviation of the averaged measurements. The list shows a part of the results. Single values are uncertain, as repeats are few or missing.
# Tested on: RAW 264.7
# Experiment: cell viability (MTT) relative to vehicle control; higher = more viable cells
# Conditions: stimulus: HMGB1 5 ug/ml, 18 h
# [1] = compound concentration: 1 ug/ml
SMILES,cell viability (compound concentration: 3 uM) [%],cell viability [1] [%]
N=C(N)NC(=N)N1CCOCC1 [Moroxydine HCl],112,–
N=C(N)NC(=N)N1CCOCC1,111,–
COc1nc(C)nc(Cl)c1NC1=NCCN1,90.4,–
COc1nc(C)nc(Cl)c1NC1=NCCN1 [Moxonidine hydrochloride],105,–
COc1nc(C)nc(Cl)c1NC1=NCCN1 [Moxonidine],99.1,–
"COc1ccc2c(C)cc(=O)oc2c1OC [7,8-Dimethoxy-4-methylcoumarin]",–,94.3
COc1cccc(-c2cc(=O)c3ccc(O)cc3o2)c1 [7-Hydroxy-3'-methoxyflavone],–,96.3
N#CC(C#N)=C(N)/C(C#N)=C/c1ccc(O)cc1 [Tyrphostin AG 112],111,–
NCCS(=O)(=O)O,107,–
NCCS(=O)(=O)O [Taurine],114,–
COc1cc2nc(N3CCN(C(=O)c4ccco4)CC3)nc(N)c2cc1OC,109,–
COc1cc2nc(N3CCN(C(=O)c4ccco4)CC3)nc(N)c2cc1OC [Prazosin],98.3 ± 3.8,–
COc1cc2nc(N3CCN(C(=O)c4ccco4)CC3)nc(N)c2cc1OC [Prazosin hydrochloride],104 ± 6.3,103
CCn1cc(C(=O)O)c(=O)c2cnc(N3CCNCC3)nc21 [Pipemidic acid],106,–
CCn1cc(C(=O)O)c(=O)c2cnc(N3CCNCC3)nc21,108,–
O=c1c(O)c(-c2cc(O)c(O)c(O)c2)oc2cc(O)cc(O)c12 [Myricetin],108,90.7
CC(=O)N[C@@H](CC(=O)N[C@@H](CCC(=O)O)C(=O)O)C(=O)O,111,–
CC(=O)N[C@@H](CC(=O)N[C@@H](CCC(=O)O)C(=O)O)C(=O)O [Spaglumic acid],89,–
c1ccc(C(NCCNC(c2ccccc2)c2ccccc2)c2ccccc2)cc1,109,–
COc1ccc(-c2cc(=O)c3c(O)cc(O)cc3o2)cc1 [Acacetin],–,111
Cc1ccc(S(=O)(=O)NC(=O)NN2CC3CCCC3C2)cc1 (centres undefined),110,–
Cc1ccc(S(=O)(=O)NC(=O)NN2CC3CCCC3C2)cc1 (centres undefined) [Gliclazide],92.1 ± 17,–

SMILES,cell viability (compound concentration: 3 uM) [%],cell viability [1] [%]
COc1ccc(-c2oc3c(CC=C(C)C)c(O[C@@H]4O[C@H](CO)[C@@H](O)[C@H](O)[C@H]4O)cc(O)c3c(=O)c2O[C@@H]2O[C@@H](C)[C@H](O)[C@@H](O)[C@H]2O)cc1 [Icarrin],–,95
COc1ccc(-c2oc3c(CC=C(C)C)c(O[C@@H]4O[C@H](CO)[C@@H](O)[C@H](O)[C@H]4O)cc(O)c3c(=O)c2O[C@@H]2O[C@@H](C)[C@H](O)[C@@H](O)[C@H]2O)cc1,87.9,–
C[C@H]1[C@@H](O)O[C@@H]2O[C@@]3(C)CC[C@H]4[C@H](C)CC[C@@H]1[C@@]24OO3,79.6,–
CCn1cc(C(=O)O)c(=O)c2ccc(C)nc21 [Nalidixic acid sodium],108,–
CCn1cc(C(=O)O)c(=O)c2ccc(C)nc21 [Nalidixic acid sodium salt],110,–
CCn1cc(C(=O)O)c(=O)c2ccc(C)nc21,122,–
O=C(O)CCC(=O)OC[C@@H](NC(=O)C(Cl)Cl)[C@H](O)c1ccc([N+](=O)[O-])cc1,109,–
Cc1cccc(/C=C/c2ccccc2)n1,114,–
COc1ccc2cc(CCC(C)=O)ccc2c1 [Nabumetone],97.1 ± 6.4,–
CCCCCC(C)N (centres undefined),102,–
C#CCN(C)Cc1ccccc1 [Pargyline hydrochloride],105 ± 5.4,–
C#CCN(C)Cc1ccccc1,108,–
O=c1[nH]c2ccccc2c2ccccc12 [6(5H)-Phenanthridinone],108,–
Oc1c(I)cc(I)c2cccnc12,104,–
O=C(CCCN1CC=C(n2c(=O)[nH]c3ccccc32)CC1)c1ccc(F)cc1 [Droperidol],105 ± 11,–
O=C(CCCN1CC=C(n2c(=O)[nH]c3ccccc32)CC1)c1ccc(F)cc1,102 ± 7.9,–
CCN(CC)CCNC(=O)c1cc(S(C)(=O)=O)ccc1OC [Tiapride hydrochloride],109 ± 9,–
CCN(CC)CCNC(=O)c1cc(S(C)(=O)=O)ccc1OC,103,–
CC(C)N1CCN(c2ccc(OCC3COC(Cn4cncn4)(c4ccc(Cl)cc4Cl)O3)cc2)CC1 (centres undefined) [Terconazole],96,–
CN1C2CCCC1CC(NC(=O)c1nn(C)c3ccccc13)C2 (centres undefined),94,–
CN1C2CCCC1CC(NC(=O)c1nn(C)c3ccccc13)C2 (centres undefined) [Granisetron hydrochloride],115,–
CN1C2CCCC1CC(NC(=O)c1nn(C)c3ccccc13)C2 (centres undefined) [Granisetron],111 ± 18,–

SMILES,cell viability (compound concentration: 3 uM) [%],cell viability [1] [%]
CCN(CC)CC#CCOC(=O)C(O)(c1ccccc1)C1CCCCC1 (centres undefined) [Oxybutynin chloride],103,–
CCN(CC)CC#CCOC(=O)C(O)(c1ccccc1)C1CCCCC1 (centres undefined) [Oxybutynin Chloride],103,–
CCN(CC)CC#CCOC(=O)C(O)(c1ccccc1)C1CCCCC1 (centres undefined),105,–
Cc1ncc([N+](=O)[O-])n1CCO [Metronidazole],98.2 ± 6.8,–
Cc1ncc([N+](=O)[O-])n1CCO,101 ± 8.8,–
OC(CCN1CCCCC1)(c1ccccc1)C1CC2C=CC1C2 (centres undefined) [Biperiden hydrochloride],87.9 ± 3,–
OC(CCN1CCCCC1)(c1ccccc1)C1CC2C=CC1C2 (centres undefined),105,–
CCN(Cc1ccncc1)C(=O)C(CO)c1ccccc1 (centres undefined) [Tropicamide],107 ± 12,–
CCN(Cc1ccncc1)C(=O)C(CO)c1ccccc1 (centres undefined),103,–
CN(C)CCOC1=Cc2ccccc2Sc2ccc(Cl)cc21 [Zotepine],118,–
O=C(NCCNCC(O)COc1ccc(O)cc1)N1CCOCC1 (centres undefined) [Xamoterol hemifumarate],101,–
O=C(NCCNCC(O)COc1ccc(O)cc1)N1CCOCC1 (centres undefined) [Xamoterol],107,–
N=C(N)c1ccccc1 [Benzamidine hydrochloride],91.8,–
COCc1c(C(C)C)nc(C(C)C)c(/C=C/[C@@H](O)C[C@@H](O)CC(=O)O)c1-c1ccc(F)cc1,100,–
COCc1c(C(C)C)nc(C(C)C)c(/C=C/[C@@H](O)C[C@@H](O)CC(=O)O)c1-c1ccc(F)cc1 [Cerivastatin],121,–
COc1ccc(C(=O)NCc2cccnc2)cc1C(=O)NCc1cccnc1 [Picotamide],98.4 ± 6.5,–
COc1ccc(C(=O)NCc2cccnc2)cc1C(=O)NCc1cccnc1 [Picotamide monohydrate],91.2,–
CC(C)c1cccc(C(C)C)c1N1C(=O)c2ccc(O)cc2C1=O,114,–
O=C([O-])c1ccccc1O.[Na+],100,–
COc1ccc2[nH]cc(CCNC(C)=O)c2c1 [Melatonin],107 ± 8.2,93
CCCCC/C=C\C[C@@H](O)/C=C/c1cccc(C[C@@H](O)CCCCO)n1,117,–
NC[C@H]1O[C@H](O[C@H]2[C@H](O[C@@H]3O[C@H](CO)[C@@H](O)[C@H]3O)[C@@H](O)[C@H](N)C[C@@H]2N)[C@H](N)[C@@H](O)[C@@H]1O,112,–

# 7 entries from above, with tabs.
SMILES	cell viability (compound concentration: 3 uM) [%]	cell viability [1] [%]
CCN(CC)CC#CCOC(=O)C(O)(c1ccccc1)C1CCCCC1 (centres undefined) [Oxybutynin chloride]	103	–
O=C(NCCNCC(O)COc1ccc(O)cc1)N1CCOCC1 (centres undefined) [Xamoterol hemifumarate]	101	–
O=C(NCCNCC(O)COc1ccc(O)cc1)N1CCOCC1 (centres undefined) [Xamoterol]	107	–
COCc1c(C(C)C)nc(C(C)C)c(/C=C/[C@@H](O)C[C@@H](O)CC(=O)O)c1-c1ccc(F)cc1	100	–
CC(C)c1cccc(C(C)C)c1N1C(=O)c2ccc(O)cc2C1=O	114	–
O=C([O-])c1ccccc1O.[Na+]	100	–
NC[C@H]1O[C@H](O[C@H]2[C@H](O[C@@H]3O[C@H](CO)[C@@H](O)[C@H]3O)[C@@H](O)[C@H](N)C[C@@H]2N)[C@H](N)[C@@H](O)[C@@H]1O	112	–

# Later entries:

SMILES,cell viability (compound concentration: 3 uM) [%],cell viability [1] [%]
NC[C@H]1O[C@H](O[C@H]2[C@H](O[C@@H]3O[C@H](CO)[C@@H](O)[C@H]3O)[C@@H](O)[C@H](N)C[C@@H]2N)[C@H](N)[C@@H](O)[C@@H]1O [Ribostamycin sulfate salt],118,–
Cc1ccc(C(=O)c2cc(O)c(O)c([N+](=O)[O-])c2)cc1 [Tolcapone],102,–
O=Nc1c(-c2c(O)[nH]c3ccccc23)[nH]c2ccccc12 [Indirubin-3'-oxime],103,–
C=CC[C@@H]1/C=C(\C)C[C@H](C)C[C@H](OC)[C@H]2O[C@@](O)(C(=O)C(=O)N3CCCC[C@H]3C(=O)O[C@H](/C(C)=C/[C@@H]3CC[C@@H](O)[C@H](OC)C3)[C@H](C)[C@@H](O)CC1=O)[C@H](C)C[C@@H]2OC,111 ± 6.7,–
C[C@]12CCC(=O)C=C1CC[C@@H]1[C@@H]2[C@@H](O)C[C@@]2(C)[C@H]1CC[C@]2(O)C(=O)CO [Hydrocortisone],104 ± 9.1,–
C[C@]12CCC(=O)C=C1CC[C@@H]1[C@@H]2[C@@H](O)C[C@@]2(C)[C@H]1CC[C@]2(O)C(=O)CO,115,–
C[C@]12CCC(=O)C=C1CC[C@@H]1[C@@H]2[C@@H](O)C[C@@]2(C)[C@H]1CC[C@]2(O)C(=O)CO [Hydrocortisone base],115,–
"C[C@]12CCC(=O)C=C1CC[C@@H]1[C@@H]2[C@@H](O)C[C@@]2(C)[C@H]1CC[C@]2(O)C(=O)CO [Hydrocortisone, 98%]",–,107
CCOC(=O)C1=C[C@@H](OC(CC)CC)[C@H](NC(C)=O)[C@@H](N)C1 [Oseltamivir],100,–
CNCCCC1c2ccccc2C=Cc2ccccc21,95.8,–
CNCCCC1c2ccccc2C=Cc2ccccc21 [Protriptyline hydrochloride],94.7 ± 11,–
CCCCCCC[N+](CC)(CC)CCCCc1ccc(Cl)cc1 [Clofilium tosylate],81.2,–
O=[N+]([O-])c1ccc(-c2nc(-c3ccc(F)cc3)c(-c3ccncc3)[nH]2)cc1,93.5,–
O=c1cc(-c2ccccc2F)[nH]c2cc3c(cc12)OCO3 [CHM-1 hydrate],76.1,–
Oc1ncnc2[nH]ncc12,104,–
Oc1ncnc2[nH]ncc12 [Allopurinol],97 ± 16,–
S=C(S)OC1CC2CC1C1CCCC21 [D-609 potassium],117,–
O=C(CCc1ccc(O)cc1)c1c(O)cc(O)cc1O[C@@H]1O[C@H](CO)[C@@H](O)[C@H](O)[C@H]1O [Phloridzin dihydrate],–,90
CC(=O)C1=C(O)C=C2Oc3c(C(C)=O)c(O)c(C)c(O)c3[C@@]2(C)C1=O [(+)-Usnic acid],–,82.1
CN(N=O)C(=O)N[C@H]1C(O)O[C@H](CO)[C@@H](O)[C@@H]1O (mixture of isomers),96.99 ± 0.085,–

# Reference: the supplement of paper PMC3682954
